What is called AC50 is the concentration at which the activity in the assay is half-maximal.

In PubChem BioAssay AID445 (National Center for Advancing Translational Sciences (NCATS), 2006) one finds AC50 data, which are given here for 18 molecules.

The list shows a part of the results. These are further read-outs of the screen, such as a control signal, another cell line or another target. No call is given for them. The list favours compounds with an active or inconclusive main result. The note in brackets gives the kind of curve behind each potency; many fits are weak.

The test is described as follows: IkB Signaling. As to conditions: ABC-DLBCL IkBa-CBG/CBR dual luciferase ratio (green luciferase fused to IkBa over red control in OCI-Ly3 lymphoma cells), 4 h; measured here: control luc red channel unless noted. In short, it runs like this:
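Curves were fitted separately to fusion (green), unfused (red) and ratio luminescence, then classed by r2, magnitude and activity. Cells: OCI-Ly3, 4 h compound plus doxycycline at 37C; 10 uM MG-132 defined full response.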
Consider `CCOC(=O)C(C)Sc1nc(-c2ccccc2Cl)cc(-c2ccccc2)c1C#N` (stereo not drawn), for which the AC50 is 0.631 µM [rising, full curve, poor fit].
Next, `Cc1cc(C)cc(NC(=O)CSc2nc(=O)n(Cc3ccccn3)c3c2CCC3)c1`: 15.8 µM [falling, partial curve]; `Cc1cccc(Oc2nc3c(c(=O)n(C)c(=O)n3C)n2Cc2ccccc2)c1C`: 15.8 µM [falling, partial curve].
Next, `COc1ccc(-n2cc(-c3ccccc3)c3c(NC4CCCC4)ncnc32)cc1`: 39.8 µM [falling, single point].
Under `CCc1cccc(NC(=O)Cn2c(=O)n(-c3cccc(Cl)c3)c(=O)c3c2c2cc(C)ccc2n3C)c1` stands 0.01 µM [falling, full curve].
`Cn1c(SCC(=O)N2CCCc3ccccc32)ncc(C(=O)Nc2ccccc2)c1=O`: the AC50 was 31.6 µM [falling, single point].
With `COCCNC(=O)CSc1nc(-c2ccccc2)[nH]c1-c1ccc(OC)cc1`, the AC50 is 12.6 µM [falling, partial curve].
With `CCOc1ccc(NC(=O)C2CCCN(S(=O)(=O)c3c(C)noc3/C=C/N(C)C)C2)cc1` (stereo not drawn), the AC50 is 31.6 µM [falling, single point].
Next, `CCOC(=O)C1=C(CN2CCN(c3ccc(OC)cc3)CC2)NC(=O)NC1c1ccc(Cl)cc1` (stereo not drawn): 15.8 µM [falling, single point].
With `Cc1cc(CN2CCN(c3cccc(C)c3C)CC2)cs1`, the AC50 was 12.6 µM [falling, single point].
Under `Fc1ccc2[nH]c(-c3cccs3)cc2c1` stands 0.631 µM [rising, full curve].
Consider `Cc1ccc(-c2nc(CSc3nncn4c3cc3occc34)c(C)o2)cc1`, for which the AC50 is 39.8 µM [falling, single point].
Next, `Cc1ccc(Cn2cc(C(=O)c3ccc4c(c3)OCO4)c(=O)c3cc(C)ccc32)cc1`: 15.8 µM [falling, single point]; `O=C(CSc1nnc(-c2ccccc2)o1)Nc1ccccc1F`: 0.316 µM [falling, full curve].
Next, `Cc1ccc(CNC(=O)c2cnn(-c3cccc(C)c3)c2C2CCN(C(=O)OC(C)(C)C)CC2)cc1`: 5.01 µM [falling, partial curve]; `CC(=O)c1ccc(NS(=O)(=O)c2ccc(-c3cnc(C4CC4)o3)cc2)cc1`: 15.8 µM [falling, partial curve].
Under `CCC1CCCCN1S(=O)(=O)c1cc(C(=O)Nc2ccc(C)c(F)c2)ccc1F` (stereo not drawn) stands 6.31 µM [falling, full curve]; under `Cc1ccc(C(=O)N2CCN(c3ccccc3)CC2)cc1S(=O)(=O)N1CCCC1`, 10 µM [falling, partial curve].
